# In the supplement of paper PMC5393889:
# The other results are listed elsewhere or left out.
# System: Caenorhabditis elegans N2
# Experiment: aldicarb interaction hit call (worm growth perturbed in combination with 10 uM aldicarb in both replicates, no effect as single agent) (binary (1 = interacts)); higher = interacts with aldicarb (growth perturbed)
# Details: first compound 1.5 µM; aldicarb concentration 10 µM; 6 days; 20 °C
row,Compound,aldicarb interaction hit call
1,O=S(=O)(NCCSc1ccc(Cl)cc1)c1ccc(F)cc1 [wact-456] + CNC(=O)O/N=C/C(C)(C)SC [aldicarb],inactive: 0
2,CCOc1ccc(C(=O)/C=C/c2ccccc2F)cc1 [wact-17] + CNC(=O)O/N=C/C(C)(C)SC [aldicarb],inactive: 0
3,CCn1ccnc1CN1CCCC(C(=O)c2ccc(-c3ccccc3)cc2)C1 (configuration not stated) [wact-296] + CNC(=O)O/N=C/C(C)(C)SC [aldicarb],inactive: 0
4,Cc1c(Cl)ccc(OCCN2CCNCC2)c1C.O=C(O)C(=O)O [wact-80] + CNC(=O)O/N=C/C(C)(C)SC [aldicarb],inactive: 0
5,O=C1CC(c2cccs2)Sc2nc3ccccc3n21 (configuration not stated) [wact-469] + CNC(=O)O/N=C/C(C)(C)SC [aldicarb],inactive: 0
6,N/C(=N\OC(=O)c1ccc(Cl)cc1)c1ccc(F)cc1F [migrazole-A] + CNC(=O)O/N=C/C(C)(C)SC [aldicarb],inactive: 0
7,CC(Oc1ccc(Br)cc1)C(=O)O/N=C(\N)c1ccncc1 (configuration not stated) [wact-104] + CNC(=O)O/N=C/C(C)(C)SC [aldicarb],inactive: 0
8,CN(CC1CCN(CCc2ccc(Cl)cc2)CC1)C(=O)c1ccc(C(F)(F)F)cc1 [wact-304] + CNC(=O)O/N=C/C(C)(C)SC [aldicarb],inactive: 0
9,c1csc(-c2cnc3ccccc3n2)c1 [wact-21] + CNC(=O)O/N=C/C(C)(C)SC [aldicarb],inactive: 0
10,CCOc1nnc(-c2ccccc2)c2ccccc12 [wact-25] + CNC(=O)O/N=C/C(C)(C)SC [aldicarb],inactive: 0
11,O=C(Nc1ccc2[nH]c(-c3cccs3)nc2c1)c1cccs1 [wact-534] + CNC(=O)O/N=C/C(C)(C)SC [aldicarb],inactive: 0
12,Cc1cc(Nc2ccc(Cl)cc2)ncn1 [wact-576] + CNC(=O)O/N=C/C(C)(C)SC [aldicarb],inactive: 0
13,Nc1nc(SC(c2ccccc2)c2ccc(Cl)cc2)ns1 (configuration not stated) [wact-126] + CNC(=O)O/N=C/C(C)(C)SC [aldicarb],inactive: 0
14,Cc1cc(I)ccc1NC(=S)NC(=O)C(C)(C)C [wact-72] + CNC(=O)O/N=C/C(C)(C)SC [aldicarb],inactive: 0
15,N/C(=N\OC(=O)c1ccco1)c1ccccc1 [wact-404] + CNC(=O)O/N=C/C(C)(C)SC [aldicarb],inactive: 0
16,C=CCNCc1ccc(-c2ccc(Cl)cc2)o1.Cl [wact-187] + CNC(=O)O/N=C/C(C)(C)SC [aldicarb],inactive: 0
17,O=C(NC(=S)Nc1ccc(F)c(Cl)c1)C1CC1 [wact-227] + CNC(=O)O/N=C/C(C)(C)SC [aldicarb],inactive: 0
18,CCC(C(=O)N1CCN(c2ccc([N+](=O)[O-])cc2)CC1)c1ccccc1 (configuration not stated) [wact-50] + CNC(=O)O/N=C/C(C)(C)SC [aldicarb],inactive: 0
19,Fc1ccc(-c2cnc3ccccc3n2)cc1 [wact-457] + CNC(=O)O/N=C/C(C)(C)SC [aldicarb],inactive: 0
20,Cc1c(Cl)cccc1Nc1nc(-c2ccncc2)cs1 [wact-474] + CNC(=O)O/N=C/C(C)(C)SC [aldicarb],inactive: 0
21,CCOc1ccc(C(=O)c2cccs2)cc1 [wact-471] + CNC(=O)O/N=C/C(C)(C)SC [aldicarb],inactive: 0
22,CC(C)(C)c1ccc(-c2nc(-c3ccncc3)no2)cc1 [wact-8] + CNC(=O)O/N=C/C(C)(C)SC [aldicarb],inactive: 0
23,C#CCNS(=O)(=O)c1cccc(C(=O)Nc2nc(-c3ccc(F)c(F)c3)c(C)s2)c1 [wact-346] + CNC(=O)O/N=C/C(C)(C)SC [aldicarb],inactive: 0
24,Cc1ccc(C(=O)O/N=C(\N)c2ccc(Cl)cc2)c(C)c1 [wact-537] + CNC(=O)O/N=C/C(C)(C)SC [aldicarb],inactive: 0
25,C#CCNC(=O)CSc1nnc(-c2cc3c(s2)CCC(C)C3)o1 (configuration not stated) [clearyn] + CNC(=O)O/N=C/C(C)(C)SC [aldicarb],inactive: 0
26,O=[N+]([O-])c1ccc(CSc2ccc(Cl)cc2)cc1 [wact-3] + CNC(=O)O/N=C/C(C)(C)SC [aldicarb],inactive: 0
27,Cc1cc(-c2nc3ccccc3o2)ccc1N [wact-571] + CNC(=O)O/N=C/C(C)(C)SC [aldicarb],inactive: 0

# Taken from above.
# aldicarb interaction hit call with O=S(=O)(NCCSc1ccc(Cl)cc1)c1ccc(F)cc1 [wact-456] + CNC(=O)O/N=C/C(C)(C)SC [aldicarb] is entered as inactive: 0
# aldicarb interaction hit call with CCOc1nnc(-c2ccccc2)c2ccccc12 [wact-25] + CNC(=O)O/N=C/C(C)(C)SC [aldicarb] is entered as inactive: 0
